Patent publication US12674167B2, “Aptamer specifically binding to cancer stem cells, and use thereof” (HiCELL Tech, priority 2019, dated 2026)
For some assays here: Results from cells or extracts need not show a direct contact. Where a protein sequence is shown, tags need not be part of it.

Experiments:
[1] = molecular target: T1, CD166 (ALCAM) on mesenchymal stem cells (UniProt Q13740); experiment: flow cytometry; conditions: N = 5-(N-naphthylcarboxyamide)-2'-deoxyuridine (NapdU) at every N; 500 nM aptamer, room temperature; similar to anti-CD166 antibody; protein on the cell …; protein details: endogenous, normal mesenchymal stem cells; single-stranded DNA
T1 sequence (looked up, limits assumed): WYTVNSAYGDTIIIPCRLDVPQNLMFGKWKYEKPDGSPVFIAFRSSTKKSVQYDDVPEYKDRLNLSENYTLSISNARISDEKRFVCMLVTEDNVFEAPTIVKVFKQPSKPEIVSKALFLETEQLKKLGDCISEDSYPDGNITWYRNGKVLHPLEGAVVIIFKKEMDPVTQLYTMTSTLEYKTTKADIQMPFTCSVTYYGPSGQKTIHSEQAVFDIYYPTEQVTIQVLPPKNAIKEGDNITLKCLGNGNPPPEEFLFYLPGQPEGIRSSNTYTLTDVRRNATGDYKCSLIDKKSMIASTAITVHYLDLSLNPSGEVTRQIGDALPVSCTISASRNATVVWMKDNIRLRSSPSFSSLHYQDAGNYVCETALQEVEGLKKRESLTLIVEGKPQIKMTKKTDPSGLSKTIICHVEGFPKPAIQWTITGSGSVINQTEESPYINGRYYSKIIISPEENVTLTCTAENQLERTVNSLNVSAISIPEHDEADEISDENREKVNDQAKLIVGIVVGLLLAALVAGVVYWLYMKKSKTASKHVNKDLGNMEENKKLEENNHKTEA

[2] = molecular target: T2, CD166 (ALCAM) on A2780-SP ovarian cancer stem cells (Homo sapiens) (UniProt Q13740); experiment: flow cytometry; conditions: N = 5-(N-naphthylcarboxyamide)-2'-deoxyuridine (NapdU) at every N, 500 nM aptamer, room temperature, protein on the cell surface, protein details: endogenous, A2780-SP cell line (high CD166), single-stranded DNA
T2 sequence (looked up, limits assumed): T1 sequence (looked up, limits assumed)

[3] = molecular target: T2, CD166 (ALCAM) on A2780-SP ovarian cancer stem cells (Homo sapiens); experiment: activity in cells; conditions: N = 5-(N-naphthylcarboxyamide)-2'-deoxyuridine (NapdU) at every N, protein on the cell surface, protein details: endogenous, A2780-SP cell line (high CD166), single-stranded DNA

Sequence	binding result [1]	binding result ([2]; strongest binder of the six, similar to anti-CD166 …)	functional effect of the aptamer ([3]; reduced adhesion, proliferation, paclitaxel resistance, migration, p-PAXILLIN/p-SRC/p-FAK Y925 and tumor formation, dose not given here)	binding result ([2]; called high affinity in Example 9)	functional effect of the aptamer ([3]; 500 nM aptamer 1 h, reduced cell adhesion to collagen of CD166+ ovarian cancer stem cells)
TCAGCCGCCAGCCAGTTCATTTGATAAAGCTCCGTTATCGGGCCCCTTGTAGAGTCATGACCAGAGCACCACAGAG [AT5 (clone 5)]	binds	binds	active		
TCAGCCGCCAGCCAGTTCCTTCTAGAGTCATGCACGTTATCGGACCTGTCGGCGAATGGACCATATCACCACAGAG [AT4 (clone 4)]				binds	active
